Source: PubChem BioAssay AID330 (DTP/NCI, 2004)
The list is a part of this screen's results and no random one: it is rich in T/C values a quarter to a half above the control, in often repeated tests (any T/C) and in doses without a T/C. Other doses and runs of a compound stand elsewhere. T/C is the treated group as % of the vehicle group. Some entries give survivors of the animals treated and no T/C: the source files T/C as zero there, which appears to mark a toxic dose or a test without result, not a measured value. Some doses without a T/C left all or most animals alive at the check, yet need not have been tolerated: the source hardly ever lists a survival T/C far under the control, and the zero likely stands for such cases as well. Survivors were counted at the toxicity check, usually on the fifth day, unless a day is given; later deaths do not show. Schedule codes are those of the source, taken here to give the interval after Q, in days (D) or hours (H), and the number of doses after X. Some doses were run more than once; their values stand side by side, smallest first. For survival time, the PubChem record calls one and a half times the control and up active, and a quarter to a half above the control has no call in these data; cut-offs in other NCI protocols can differ. Additions like (4×) stand for listed records that agree. Some T/C values carry the count of animals alive at the toxicity check (mostly the fifth day); without a count, all were alive then.

Test system: P388 leukemia ip, CD2F1 mice, survival T/C
Test: NCI In Vivo Anticancer Drug Screen. Data for tumor model P388 Leukemia (intraperitoneal) in CD2F1 (CDF1) mice
Settings: T/C endpoint: median survival time, higher T/C = longer survival
[1] = dose: 25.0 mg/kg/injection, schedule: Q01DX009 (ip), vehicle: Klucel (hydroxypropylcellulose) (HPC)
[2] = dose: 50.0 mg/kg/injection, schedule: Q01DX009 (ip), vehicle: Klucel (hydroxypropylcellulose) (HPC)
[3] = dose: 100.0 mg/kg/injection, schedule: Q01DX009 (ip), vehicle: Klucel (hydroxypropylcellulose) (HPC)
[4] = dose: 200.0 mg/kg/injection, schedule: Q01DX009 (ip), vehicle: Klucel (hydroxypropylcellulose) (HPC)
[5] = dose: 12.5 mg/kg/injection, schedule: Q01DX009 (ip), vehicle: other
[6] = dose: 25.0 mg/kg/injection, schedule: Q01DX009 (ip), vehicle: other
[7] = dose: 12.5 mg/kg/injection, schedule: Q01DX009 (ip), vehicle: water
[8] = dose: 50.0 mg/kg/injection, schedule: Q01DX009 (ip), vehicle: water
[9] = dose: 100.0 mg/kg/injection, schedule: Q01DX009 (ip), vehicle: other
[10] = dose: 100.0 mg/kg/injection, schedule: Q01DX009 (ip), vehicle: water
[11] = dose: 100.0 mg/kg/injection, schedule: Q04DX003 (ip), vehicle: distilled water + Tween-80
[12] = dose: 200.0 mg/kg/injection, schedule: Q04DX003 (ip), vehicle: distilled water + Tween-80
[13] = dose: 200.0 mg/kg/injection, schedule: Q04DX003 (ip), vehicle: water

With `ClCCN(CCCl)c1ccc(/C=N/Nc2c3c(nc4ccccc24)CCCC3)cc1` the survivor count (dose: 3.12 mg/kg/injection, schedule: Q01DX009 (ip), vehicle: Klucel (hydroxypropylcellulose) (HPC)) was 5 of 5, the survivor count (dose: 6.25 mg/kg/injection, schedule: Q01DX009 (ip), vehicle: Klucel (hydroxypropylcellulose) (HPC)) was 4 of 4 and 6 of 6 and the survivor count [1] was 5 of 6. For the same molecule, the survivor count [2] was 0 of 6, the survivor count [3] was 0 of 6 and the survivor count [4] was 0 of 6.
`CN1C(=O)C(=Cc2ccc(O)cc2)C(=O)N(C)C1=O` was tested, and the T/C (dose: 200.0 mg/kg/injection, schedule: Q01DX009 (ip), vehicle: saline with Tween-80) was 126 % of control (2×).
For `CCCCC(=O)NN(Cn1c(=S)sc2ccccc21)Cn1c(=S)sc2ccccc21`, the T/C (dose: 1.56 mg/kg/injection, schedule: Q01DX009 (ip), vehicle: Klucel (hydroxypropylcellulose) (HPC)) was 125 % of control, the survivor count (dose: 12.5 mg/kg/injection, schedule: Q01DX009 (ip), vehicle: Klucel (hydroxypropylcellulose) (HPC)) was 6 of 6 and the survivor count [1] was 6 of 6. For the same molecule, the survivor count [3] was 6 of 6 and the survivor count [4] was 1 of 6.
In the case of `CC[C@@]1(O)C[C@H](OC2CC(N(C)C)C(O)C(C)O2)c2c(cc3c(c2O)C(=O)c2c(O)ccc(O)c2C3=O)[C@H]1C(=O)OC` (stereo not given in full), the T/C (dose: 3.0 mg/kg/injection, schedule: Q01DX009 (ip), vehicle: distilled water + Tween-80) is reported as 130 % of control, the T/C (dose: 6.0 mg/kg/injection, schedule: Q01DX009 (ip), vehicle: distilled water + Tween-80) is reported as 130 % of control and the T/C (dose: 12.0 mg/kg/injection, schedule: Q01DX009 (ip), vehicle: distilled water + Tween-80) is reported as 145 % of control. For the same molecule, the T/C [5] was 131 % of control, the survivor count (dose: 24.0 mg/kg/injection, schedule: Q01DX009 (ip), vehicle: distilled water + Tween-80) was 4 of 6 and the survivor count [6] was 0 of 6.
In the case of `CCCCCCC/C=C/C(=O)OC1C(OC2C(OC(CCCCCCC)CC(=O)OC(CCCCCCC)CC(=O)O)OC(C)C(O)C2O)OC(C)C(O)C1O` (stereo not given), the survivor count [4] is reported as 1 of 6.
`C=CCn1c(=S)sc2ccccc21` was tested, and the survivor count [2] was 6 of 6, the survivor count [3] was 6 of 6 and the survivor count [4] was 6 of 6.
For `COc1cccc2c1oc1c3ccc(O)cc3oc(=O)c21`, the survivor count (dose: 12.5 mg/kg/injection, schedule: Q01DX007 (ip), vehicle: carboxymethylcellulose (CMC)) was 5 of 5 and the survivor count (dose: 25.0 mg/kg/injection, schedule: Q01DX007 (ip), vehicle: carboxymethylcellulose (CMC)) was 5 of 5.
For `Cn1c(=O)c2c(ncn2CCCl)n(C)c1=O`, the survivor count (dose: 200.0 mg/kg/injection, schedule: Q01DX005 (ip), vehicle: distilled water + Tween-80) was 1 of 6.
`COc1cc(NCCCCCNC(C)C(C)C)c2ncccc2c1` (stereo not given) was tested, and the survivor count (dose: 100.0 mg/kg/injection, schedule: Q01DX005 (ip), vehicle: saline with Tween-80) was 1 of 6 and the survivor count (dose: 200.0 mg/kg/injection, schedule: Q01DX005 (ip), vehicle: saline with Tween-80) was 0 of 6.
With `COc1cc2cc3c4cc(OC)c(OC)cc4cc[n+]3c(C)c2cc1OC` (tested in a mixture with another compound) the T/C [5] was 131, 139, 141, 146, 149, 150 [5 of 6 alive], 151 % of control [5 of 6 alive], the T/C [7] was 148 % of control and the T/C (dose: 12.5 mg/kg/injection, schedule: Q04DX003 (ip), vehicle: distilled water + Tween-80) was 118, 122, 122 [5 of 6 alive], 125, 126, 130, 131, 132 (2×), 134 (2×), 135, 136, 140, 141 % of control. For the same molecule, the T/C (dose: 12.5 mg/kg/injection, schedule: Q04DX003 (ip), vehicle: water) was 127, 136, 138 % of control, the T/C [6] was 123 [5 of 6 alive], 131, 144, 150, 152, 159, 168 % of control and the T/C (dose: 25.0 mg/kg/injection, schedule: Q01DX009 (ip), vehicle: saline) was 144 % of control. For the same molecule, the T/C (dose: 25.0 mg/kg/injection, schedule: Q04DX003 (ip), vehicle: distilled water + Tween-80) was 127, 130, 133, 138, 139, 140, 141 (2×), 142, 144, 145 (2×), 146, 147, 156 % of control, the T/C (dose: 25.0 mg/kg/injection, schedule: Q04DX003 (ip), vehicle: water) was 135, 145, 147 % of control and the T/C (dose: 50.0 mg/kg/injection, schedule: Q01DX009 (ip), vehicle: other) was 155, 160, 169, 170, 171, 197, 200 % of control. For the same molecule, the survivor count [8] was 6 of 6, the T/C (dose: 50.0 mg/kg/injection, schedule: Q04DX003 (ip), vehicle: distilled water + Tween-80) was 136 [5 of 6 alive], 140, 141, 144 (2×), 145, 146 [5 of 6 alive], 152, 153, 158, 161, 165, 166, 172, 179 % of control and the T/C (dose: 50.0 mg/kg/injection, schedule: Q04DX003 (ip), vehicle: saline) was 141 % of control. For the same molecule, the T/C (dose: 50.0 mg/kg/injection, schedule: Q04DX003 (ip), vehicle: water) was 142 % of control, the T/C (dose: 64.0 mg/kg/injection, schedule: Q01DX009 (ip), vehicle: water) was 128 % of control and the T/C (dose: 72.0 mg/kg/injection, schedule: Q04DX003 (ip), vehicle: water) was 129 % of control. The T/C [9] was 91, 136, 180, 188, 196 % of control, the survivor count [9] was 5 of 6 and 6 of 6 and the survivor count [10] was 4 of 6 and 5 of 6. The T/C [11] was 142, 150 (2×), 152, 152 [5 of 6 alive], 155, 163, 163 [5 of 6 alive], 167 (2×), 168, 173, 180, 198 % of control, the survivor count [11] was 3 of 6 and the T/C (dose: 100.0 mg/kg/injection, schedule: Q04DX003 (ip), vehicle: saline with Tween-80) was 145 % of control. The T/C (dose: 120.0 mg/kg/injection, schedule: Q04DX003 (ip), vehicle: water) was 140 % of control [7 of 8 alive], the survivor count (dose: 150.0 mg/kg/injection, schedule: Q01DX009 (ip), vehicle: saline) was 0 of 6 and the survivor count (dose: 200.0 mg/kg/injection, schedule: Q01DX009 (ip), vehicle: other) was 2 of 6, 4 of 6, 5 of 6, 6 of 6. The survivor count (dose: 200.0 mg/kg/injection, schedule: Q01DX009 (ip), vehicle: saline) was 0 of 6, the survivor count (dose: 200.0 mg/kg/injection, schedule: Q01DX009 (ip), vehicle: water) was 2 of 6, 4 of 6, 5 of 6 and the T/C [12] was 88, 92, 103 [5 of 6 alive], 106 [5 of 6 alive], 118, 153 [5 of 6 alive], 163 [5 of 6 alive], 169, 170, 172, 190, 215 % of control. The survivor count [12] was 2 of 6 and 6 of 6, the T/C [13] was 101 and 121 % of control and the survivor count [13] was 7 of 8 and 6 of 6. For the same molecule, the survivor count (dose: 400.0 mg/kg/injection, schedule: Q04DX003 (ip), vehicle: saline with Tween-80) was 1 of 6, the survivor count (dose: 400.0 mg/kg/injection, schedule: Q04DX003 (ip), vehicle: saline) was 0 of 6 and the survivor count (dose: 800.0 mg/kg/injection, schedule: Q04DX003 (ip), vehicle: saline with Tween-80) was 1 of 6.
`COC(=O)[C@]1(O)Cc2c(O)c3c(c(O)c2[C@@H](OC2CC(N)C(O)C(C)O2)C1)C(=O)c1c(OC)cccc1C3=O` (stereo not given in full) was tested, and the T/C [7] was 129 % of control, the T/C (dose: 25.0 mg/kg/injection, schedule: Q01DX009 (ip), vehicle: water) was 125 and 129 % of control and the T/C [8] was 129 [5 of 6 alive], 138, 146 % of control. The T/C (dose: 75.0 mg/kg/injection, schedule: Q01DX009 (ip), vehicle: water) was 146 [5 of 6 alive] and 149 % of control and the survivor count [10] was 3 of 6.
